US20020155500A1 (CURIS, published 2002)
Results are given in words; binding and its absence hold for the method and conditions named. Some entries that bind do so weakly or less than the wild type.

Amino acid sequences for entries named in this document (tags omitted). A change or cut given only in a name is not applied to a line headed by its entry.
UniProt P36898: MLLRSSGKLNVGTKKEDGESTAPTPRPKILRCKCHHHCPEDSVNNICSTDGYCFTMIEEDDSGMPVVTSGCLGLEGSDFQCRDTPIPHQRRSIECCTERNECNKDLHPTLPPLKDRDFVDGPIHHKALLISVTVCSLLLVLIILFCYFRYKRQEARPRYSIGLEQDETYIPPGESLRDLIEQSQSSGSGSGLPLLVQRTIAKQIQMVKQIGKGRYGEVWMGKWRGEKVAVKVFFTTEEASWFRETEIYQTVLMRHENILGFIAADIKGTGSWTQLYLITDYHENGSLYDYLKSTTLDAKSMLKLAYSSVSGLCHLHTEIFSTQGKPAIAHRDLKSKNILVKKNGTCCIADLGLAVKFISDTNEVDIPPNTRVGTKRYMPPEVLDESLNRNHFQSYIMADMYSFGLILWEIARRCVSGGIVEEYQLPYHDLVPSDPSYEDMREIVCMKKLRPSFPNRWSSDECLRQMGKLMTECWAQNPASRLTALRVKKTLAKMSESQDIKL

Legend:
[1] = target: ALK-6 (transfected cDNA, on cells) (Mus musculus (Mouse)) (UniProt P36898); assay: affinity cross-linking of ^125I-BMP4 to COS-1 cells transfected with ALK6 cDNA without daf-4; immunoprecipitation with ALK antiserum, autoradiography (qualitative grade)
[2] = target: ALK-6 (transfected cDNA, on cells) (Mus musculus (Mouse)) (UniProt P36898); assay: affinity cross-linking of ^125I-BMP4 to COS-1 cells transfected with ALK6 and daf-4 cDNA; immunoprecipitation with ALK antiserum, autoradiography (qualitative grade)
[3] = target: ALK-6 (transfected cDNA, on cells) (Mus musculus (Mouse)) (UniProt P36898); assay: affinity cross-linking on transfected COS-1 cells, without and with daf-4

binding [1]: binds | binding [2]: binds | binding [3]: binds
B1: BMP-4 (ligand, UniProt P12644 293-408, looked up)
chain: SPKHHSQRARKKNKNCRRHSLYVDFSDVGWNDWIVAPPGYQAFYCHGDCPFPLADHLNSTNHAIVQTLVNSVNSSIPKACCVPTELSAISMLYLDEYDKVVLKNYQEMVVEGCGCR
modifications: ^125I label (radioiodinated, residue not stated)
